This assay concerns the target T1, NorpA peptide co-crystallized with a PDZ1 domain (G-L-T-E-F-C-A) (Drosophila).
T1 sequence (peptide): GLTEFCA
Put plainly: crystal structure (coordinates in Table 2).

Results are given in words; binding and its absence hold for the method and conditions named. Some results given as binding are weak or reduced against the parent protein; the word gives no strength.

“PDZ1 domain polypeptide of InaD as in the crystal structure of Table 2 (from UniProt Q24008 17-106)”: the binding result was “binds”.

(Values after patent US20030215897A1.)
